These are yes or no findings as the source states them, for the method shown. In cells and extracts the contact can be indirect. Some binding calls cover weakened binding; strength is not graded here. Sequences can lack the tags named with a protein.

Protein sequences, listed by entry. Tags and fused reporters are not part of them.
UniProt F1LTE0: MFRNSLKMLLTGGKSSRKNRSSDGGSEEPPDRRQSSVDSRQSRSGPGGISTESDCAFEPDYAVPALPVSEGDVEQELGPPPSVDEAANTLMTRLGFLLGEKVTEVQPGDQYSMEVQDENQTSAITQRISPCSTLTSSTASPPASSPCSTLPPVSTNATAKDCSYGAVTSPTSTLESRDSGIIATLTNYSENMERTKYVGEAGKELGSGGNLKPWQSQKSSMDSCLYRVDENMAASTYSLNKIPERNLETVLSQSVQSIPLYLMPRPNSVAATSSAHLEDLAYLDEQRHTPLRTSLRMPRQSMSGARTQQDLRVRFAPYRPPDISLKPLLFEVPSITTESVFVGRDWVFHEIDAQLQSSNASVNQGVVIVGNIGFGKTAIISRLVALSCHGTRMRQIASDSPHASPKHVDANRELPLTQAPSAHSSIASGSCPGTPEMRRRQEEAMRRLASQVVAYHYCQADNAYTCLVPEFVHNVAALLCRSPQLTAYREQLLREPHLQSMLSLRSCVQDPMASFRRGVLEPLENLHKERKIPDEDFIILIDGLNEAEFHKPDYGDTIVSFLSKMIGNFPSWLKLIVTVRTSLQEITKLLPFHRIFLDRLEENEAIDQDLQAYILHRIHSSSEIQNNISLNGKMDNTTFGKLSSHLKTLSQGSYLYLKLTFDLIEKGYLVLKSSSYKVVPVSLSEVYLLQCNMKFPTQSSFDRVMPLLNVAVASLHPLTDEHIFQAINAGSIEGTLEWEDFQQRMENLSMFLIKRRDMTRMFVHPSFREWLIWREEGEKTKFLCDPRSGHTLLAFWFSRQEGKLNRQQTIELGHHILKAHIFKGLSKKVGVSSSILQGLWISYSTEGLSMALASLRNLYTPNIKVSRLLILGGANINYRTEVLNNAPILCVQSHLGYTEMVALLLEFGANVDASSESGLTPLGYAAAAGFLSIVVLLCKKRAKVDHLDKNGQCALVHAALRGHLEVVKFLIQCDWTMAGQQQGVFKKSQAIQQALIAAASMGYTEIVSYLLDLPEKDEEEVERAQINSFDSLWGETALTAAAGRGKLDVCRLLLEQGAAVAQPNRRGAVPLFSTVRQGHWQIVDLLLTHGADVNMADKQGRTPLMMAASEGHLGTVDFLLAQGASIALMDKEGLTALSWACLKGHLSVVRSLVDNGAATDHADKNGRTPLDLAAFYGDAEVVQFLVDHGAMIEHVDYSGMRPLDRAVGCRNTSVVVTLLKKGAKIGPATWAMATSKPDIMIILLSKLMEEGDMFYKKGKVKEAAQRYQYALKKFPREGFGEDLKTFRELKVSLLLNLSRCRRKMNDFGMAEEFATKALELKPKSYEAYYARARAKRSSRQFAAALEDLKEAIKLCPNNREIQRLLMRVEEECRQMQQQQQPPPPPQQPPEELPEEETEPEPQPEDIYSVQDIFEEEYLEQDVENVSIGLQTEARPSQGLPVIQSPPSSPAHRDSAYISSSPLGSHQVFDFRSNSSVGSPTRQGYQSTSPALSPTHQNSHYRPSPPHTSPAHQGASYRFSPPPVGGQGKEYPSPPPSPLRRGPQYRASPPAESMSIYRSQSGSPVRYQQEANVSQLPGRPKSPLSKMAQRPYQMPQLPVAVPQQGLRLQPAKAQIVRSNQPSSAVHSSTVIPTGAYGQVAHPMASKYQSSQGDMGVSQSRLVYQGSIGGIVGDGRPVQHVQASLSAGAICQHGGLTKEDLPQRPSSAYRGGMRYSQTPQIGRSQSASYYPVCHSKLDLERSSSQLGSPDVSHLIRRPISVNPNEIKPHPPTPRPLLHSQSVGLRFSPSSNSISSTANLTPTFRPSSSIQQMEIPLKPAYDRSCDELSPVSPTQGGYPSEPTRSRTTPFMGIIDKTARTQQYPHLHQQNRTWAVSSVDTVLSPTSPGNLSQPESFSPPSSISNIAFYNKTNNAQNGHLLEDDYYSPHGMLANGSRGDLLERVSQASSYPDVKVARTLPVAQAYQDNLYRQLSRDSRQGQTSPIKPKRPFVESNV

One test has as its target T1, GFP-PRICKLE2 (human) (UniProt Q7Z3G6).
T1 sequence: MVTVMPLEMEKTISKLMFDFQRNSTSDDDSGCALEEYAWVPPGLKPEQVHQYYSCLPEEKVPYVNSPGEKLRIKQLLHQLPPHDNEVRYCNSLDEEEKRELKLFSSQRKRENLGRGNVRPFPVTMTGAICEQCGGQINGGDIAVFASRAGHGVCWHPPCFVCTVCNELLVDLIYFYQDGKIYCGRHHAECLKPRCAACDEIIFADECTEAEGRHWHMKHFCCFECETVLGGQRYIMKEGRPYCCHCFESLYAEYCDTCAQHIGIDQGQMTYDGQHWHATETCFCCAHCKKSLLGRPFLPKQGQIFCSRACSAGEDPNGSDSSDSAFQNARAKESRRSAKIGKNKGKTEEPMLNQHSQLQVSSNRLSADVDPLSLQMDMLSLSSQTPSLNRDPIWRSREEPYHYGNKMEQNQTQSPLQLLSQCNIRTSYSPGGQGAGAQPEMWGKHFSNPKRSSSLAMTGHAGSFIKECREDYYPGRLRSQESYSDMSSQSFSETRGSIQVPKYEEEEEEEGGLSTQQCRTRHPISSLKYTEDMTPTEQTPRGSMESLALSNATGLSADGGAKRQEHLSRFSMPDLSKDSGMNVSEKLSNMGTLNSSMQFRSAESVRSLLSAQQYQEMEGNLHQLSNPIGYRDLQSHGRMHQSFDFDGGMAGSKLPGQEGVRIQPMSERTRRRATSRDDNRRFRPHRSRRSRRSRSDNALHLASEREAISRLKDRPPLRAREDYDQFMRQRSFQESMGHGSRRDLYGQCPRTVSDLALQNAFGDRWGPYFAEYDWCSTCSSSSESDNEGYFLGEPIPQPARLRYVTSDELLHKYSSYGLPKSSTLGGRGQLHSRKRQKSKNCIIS
The experiment in a line: co-IP; GFP immunoprecipitates from differentiated PC12 lines expressing GFP, GFP-PRICKLE1 or GFP-PRICKLE2, immunoblotted with anti-BCR, anti-TANC2 and anti-USP9X for the endogenous proteins. For orientation: In western blotting, separated proteins are transferred to a membrane and probed.

A further test addresses T2, GFP-PRICKLE1 (human) (UniProt Q96MT3).
T2 sequence: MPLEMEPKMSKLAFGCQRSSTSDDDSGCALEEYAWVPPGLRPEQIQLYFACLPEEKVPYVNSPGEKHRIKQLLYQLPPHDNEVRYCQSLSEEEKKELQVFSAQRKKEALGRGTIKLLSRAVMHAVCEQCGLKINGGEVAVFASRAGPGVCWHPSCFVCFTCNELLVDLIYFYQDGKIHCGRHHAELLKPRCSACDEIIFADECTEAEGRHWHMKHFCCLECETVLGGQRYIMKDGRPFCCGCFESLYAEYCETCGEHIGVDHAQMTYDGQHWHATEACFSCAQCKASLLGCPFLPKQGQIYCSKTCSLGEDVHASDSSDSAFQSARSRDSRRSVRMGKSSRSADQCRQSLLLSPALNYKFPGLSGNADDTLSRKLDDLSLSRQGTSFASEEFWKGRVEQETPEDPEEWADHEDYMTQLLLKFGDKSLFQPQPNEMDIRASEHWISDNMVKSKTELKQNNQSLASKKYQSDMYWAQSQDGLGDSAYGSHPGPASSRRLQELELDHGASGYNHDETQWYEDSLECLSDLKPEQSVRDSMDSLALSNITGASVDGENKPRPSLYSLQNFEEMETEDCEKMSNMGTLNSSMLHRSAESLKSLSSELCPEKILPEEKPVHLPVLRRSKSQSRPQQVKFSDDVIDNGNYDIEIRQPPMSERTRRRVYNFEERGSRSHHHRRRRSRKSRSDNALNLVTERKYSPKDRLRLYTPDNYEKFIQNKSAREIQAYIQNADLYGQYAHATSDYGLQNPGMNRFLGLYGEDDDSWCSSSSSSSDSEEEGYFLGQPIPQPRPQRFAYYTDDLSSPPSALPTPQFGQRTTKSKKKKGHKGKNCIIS
The test is described as above.

Test [1] has as its target T3, C2Usp9x (carboxy terminal amino acids 2102-2560 of murine Usp9x) (mouse) (UniProt P70398).
T3 sequence: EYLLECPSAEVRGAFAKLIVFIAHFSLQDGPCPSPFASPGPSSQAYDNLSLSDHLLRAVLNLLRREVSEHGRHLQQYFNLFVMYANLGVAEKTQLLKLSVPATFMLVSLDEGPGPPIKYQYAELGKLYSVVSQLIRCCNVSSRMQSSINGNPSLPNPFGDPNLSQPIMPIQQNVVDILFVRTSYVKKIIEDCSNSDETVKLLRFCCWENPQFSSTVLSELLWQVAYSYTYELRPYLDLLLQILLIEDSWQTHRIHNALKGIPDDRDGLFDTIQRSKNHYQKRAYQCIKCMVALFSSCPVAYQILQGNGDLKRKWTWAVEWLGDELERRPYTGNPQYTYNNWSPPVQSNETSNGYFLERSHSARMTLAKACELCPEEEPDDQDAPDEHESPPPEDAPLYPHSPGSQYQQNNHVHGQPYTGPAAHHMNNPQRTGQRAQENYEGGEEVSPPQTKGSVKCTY
The experiment in a line: co-IP; HEK293T co-expressing a PRICKLE1 or PRICKLE2 c-terminal fragment with a Usp9x deletion fragment (C1 or C2); complexes immunoprecipitated via the Flag tag.

Turning to “Tanc2, endogenous in PC12 cells (from UniProt F1LTE0 1-1992)”, the binding entry in the test with GFP-PRICKLE2 (human) and with GFP-PRICKLE1 (human) was “binds” in each case.

B1: Bcr, endogenous in PC12 cells (protein, UniProt F1LXF1 1-1270)
chain: MVDSVGFAEAWRAQFPDSEPPRMELRSVGDIEQELERCKASIRRLEQEVNQERFRMIYLQTLLAKEKKSYDRQRWGFRRAAQPPDGAAEPRASAPRLPPAPADGADPAPVEESEARPDGEGSPSKGRPATARRPAAAAPADRDDRGPPTSVAALRSNFEKIRKGPAQPGSADAEKPFYVNVEFHHERGLVKVNDKEVSDRISSLGSQAMQMERKKSQQSAGQGLGEAPRPHYRGRSSESSCGLDGDYEDAELNPRFLKDNLINANGGNRPPWPPLEYQPYQSIYVGGMMVEGEGKSPLLRSQSTSEQEKRLTWPRRSYSPRSFEDSGGGYTPDCSSNENLTSSEEDFSSGQSSRVSPSPTTYRMFRDKSRSPSQNSQQSFDSSSPPTPQCQKRHRQCQVVVSEATIVGVRKTGQIWPSDGDSTFQGEADSSFGTPPGYGCAADQAEEQRRHQDGLPYIDDSPSSSPHLSSKGRGSPASGALEPTKASELDLEKGLEMRKWVLSGILASEETYLSHLEALLLPMKPLKAAATTSQPVLTSQQIETIFFKVPELYEIHKEFYDGLFPRVQQWSHQQRVGDLFQKLASQLGVYRAFVDNYGVAMETAEKCCQANAQFAEISENLRARSNKDVKDSTTKNSLETLLYKPVDRVTRSTLVLHDLLKHTPSSHPDHSLLQDALRISQNFLSSINEEITPRRQSMTVKKGEHRQLLKDSFMVELVEGARKLRHIFLFTDLLLCTKLKKQSGGKTQQYDCKWYIPLTDLSFQMVDELEALPNIPLVPDEELDALKIKISQIKSDIQREKRANKGSKVMERLRKKLSEQESLLLLMSPSMAFRVHSRNGKSYTFLISSDYERAEWRESIREQQKKCFKSFSLTSVELQMLTNSCVKLQTVHHIPLTINKEDDESPGLYGFLHAIVHSATGFKQSSNLYCTLEVDSFGYFVNKAKTRVYRDTTEPNWNEEFEIELEGSQTLRILCYEKCYNKMKMAKEDGESADKLMGKGQVQLDPQTLQDRDWQRTVIDMNGIEVKLSVKFTSREFSLKRMPSRKQTGVFGVKIAVVTKRERSKVPYIVRQCVEEIERRGMEEVGIYRVSGVATDIQALKAAFDVNNKDVSVMMSEMDVNAIAGTLKLYFRELPEPLFTDEFYPNFAEGIALSDPVAKESCMLNLLLSLPEANLLTFLFLLDHLKRVAEKETVNKMSLHNLATVFGPTLLRPSEKESKLPANPSQPITMTDSWSLEVMSQVQVLLYFLQLEAIPAPDSKRQSILFSTEV
B1: the binding result in the test with GFP-PRICKLE2 (human) and with GFP-PRICKLE1 (human) was “binds” throughout.

B2: Flag-CPRICKLE2 (C-terminus of PRICKLE2, aa 318 to 844) (domain or fragment, UniProt Q7Z3G6 318-844)
chain: GSDSSDSAFQNARAKESRRSAKIGKNKGKTEEPMLNQHSQLQVSSNRLSADVDPLSLQMDMLSLSSQTPSLNRDPIWRSREEPYHYGNKMEQNQTQSPLQLLSQCNIRTSYSPGGQGAGAQPEMWGKHFSNPKRSSSLAMTGHAGSFIKECREDYYPGRLRSQESYSDMSSQSFSETRGSIQVPKYEEEEEEEGGLSTQQCRTRHPISSLKYTEDMTPTEQTPRGSMESLALSNATGLSADGGAKRQEHLSRFSMPDLSKDSGMNVSEKLSNMGTLNSSMQFRSAESVRSLLSAQQYQEMEGNLHQLSNPIGYRDLQSHGRMHQSFDFDGGMAGSKLPGQEGVRIQPMSERTRRRATSRDDNRRFRPHRSRRSRRSRSDNALHLASEREAISRLKDRPPLRAREDYDQFMRQRSFQESMGHGSRRDLYGQCPRTVSDLALQNAFGDRWGPYFAEYDWCSTCSSSSESDNEGYFLGEPIPQPARLRYVTSDELLHKYSSYGLPKSSTLGGRGQLHSRKRQKSKNCIIS
B2: the binding entry in test [1] is listed as “binds”.

B3: Flag-CPRICKLE1 (C-terminus of PRICKLE1, aa 314 to 831) (domain or fragment, UniProt Q96MT3 314-831)
chain: ASDSSDSAFQSARSRDSRRSVRMGKSSRSADQCRQSLLLSPALNYKFPGLSGNADDTLSRKLDDLSLSRQGTSFASEEFWKGRVEQETPEDPEEWADHEDYMTQLLLKFGDKSLFQPQPNEMDIRASEHWISDNMVKSKTELKQNNQSLASKKYQSDMYWAQSQDGLGDSAYGSHPGPASSRRLQELELDHGASGYNHDETQWYEDSLECLSDLKPEQSVRDSMDSLALSNITGASVDGENKPRPSLYSLQNFEEMETEDCEKMSNMGTLNSSMLHRSAESLKSLSSELCPEKILPEEKPVHLPVLRRSKSQSRPQQVKFSDDVIDNGNYDIEIRQPPMSERTRRRVYNFEERGSRSHHHRRRRSRKSRSDNALNLVTERKYSPKDRLRLYTPDNYEKFIQNKSAREIQAYIQNADLYGQYAHATSDYGLQNPGMNRFLGLYGEDDDSWCSSSSSSSDSEEEGYFLGQPIPQPRPQRFAYYTDDLSSPPSALPTPQFGQRTTKSKKKKGHKGKNCIIS
B3: the binding entry in test [1] was “binds”.

These data come from publication PMC4357451.
